Consider seven molecules from US12378320B2, “Methods for treating pancreatitis” (Cold Spring Harbor Laboratory, priority 2018, dated 2025).

Sequences and labels used below:
B1: Q9DBJ1 (protein, UniProt Q9DBJ1 1-254, looked up)
chain: MAAYKLVLIRHGESAWNLENRFSGWYDADLSPAGHEEAKRGGQALRDAGYEFDICFTSVQKRAIRTLWTVLDAIDQMWLPVVRTWRLNERHYGGLTGLNKAETAAKHGEAQVKIWRRSYDVPPPPMEPDHPFYSNISKDRRYADLTEDQLPSCESLKDTIARALPFWNEEIVPQIKEGKRVLIAAHGNSLRGIVKHLEGLSEEAIMELNLPTGIPIVYELDKNLKPIKPMQFLGDEETVRKAMEAVAAQGKVKK
modifications: full-length
B2: Q61753 (protein, UniProt Q61753 1-533, looked up)
chain: MAFANLRKVLISDSLDPCCRKILQDGGLQVVEKQNLSKEELIAELQDCEGLIVRSATKVTADVINAAEKLQVVGRAGTGVDNVDLEAATRKGILVMNTPNGNSLSAAELTCGMIMCLARQIPQATASMKDGKWDRKKFMGTELNGKTLGILGLGRIGREVATRMQSFGMKTVGYDPIISPEVAASFGVQQLPLEEIWPLCDFITVHTPLLPSTTGLLNDSTFAQCKKGVRVVNCARGGIVDEGALLRALQSGQCAGAALDVFTEEPPRDRALVDHENVISCPHLGASTKEAQSRCGEEIAVQFVDMVKGKSLTGVVNAQALTSAFSPHTKPWIGLAEAMGTLMHAWAGSPKGTIQVVTQGTSLKNAGTCLSPAVIVGLLREASKQADVNLVNAKLLVKEAGLNVTTSHNPGVPGEQGSGECLLTVALAGAPYQAVGLVQGTTPMLQMLNGAVFRPEVPLRRGQPLLVFRAQPSDPGMLPTMIGLLAEAGVQLLSYQTSMVSDGEPWHVMGLSSLLPSLETWKQHVLEAFQFCF
modifications: full-length
B3: P09411 (protein, UniProt P09411 1-417, looked up)
chain: MSLSNKLTLDKLDVKGKRVVMRVDFNVPMKNNQITNNQRIKAAVPSIKFCLDNGAKSVVLMSHLGRPDGVPMPDKYSLEPVAAELKSLLGKDVLFLKDCVGPEVENACANPAAGTVILLENLRFHVEEEGKGKDASGNKVKAEPAKIDAFRASLSKLGDVYVNDAFGTAHRAHSSMVGVNLPQKAGGFLMKKELNYFAKALESPERPFLAILGGAKVADKIQLINNMLDKVNEMIIGGGMAFTFLKVLNNMEIGTSLYDEEGAKIVKDLMSKAEKNGVKITLPVDFVTADKFDENAKTGQATVASGIPAGWMGLDCGTESSKKYAEAVGRAKQIVWNGPVGVFEWEAFARGTKSLMDEVVKATSRGCITIIGGGDTATCCAKWNTEDKVSHVSTGGGASLELLEGKVLPGVDALSNV
modifications: full-length
B4: P80313 (protein, UniProt P80313 1-544, looked up)
chain: MMPTPVILLKEGTDSSQGIPQLVSNISACQVIAEAVRTTLGPRGMDKLIVDGRGKATISNDGATILKLLDVVHPAAKTLVDIAKSQDAEVGDGTTSVTLLAAEFLKQVKPYVEEGLHPQIIIRAFRTATQLAVNKIKEIAVTVKKQDKVEQRKMLEKCAMTALSSKLISQQKVFFAKMVVDAVMMLDELLQLKMIGIKKVQGGALEESQLVAGVAFKKTFSYAGFEMQPKKYKNPKIALLNVELELKAEKDNAEIRVHTVEDYQAIVDAEWNILYDKLEKIHQSGAKVILSKLPIGDVATQYFADRDMFCAGRVPEEDLKRTMMACGGSIQTSVNALVPDVLGHCQVFEETQIGGERYNFFTGCPKAKTCTIILRGGAEQFMEETERSLHDAIMIVRRAIKNDSVVAGGGAIEMELSKYLRDYSRTIPGKQQLLIGAYAKALEIIPRQLCDNAGFDATNILNKLRARHAQGGMWYGVDINNENIADNFQAFVWEPAMVRINALTAASEAACLIVSVDETIKNPRSTVDPPAPSAGRGRGQARFH
modifications: full-length
B5: P10493 (protein, UniProt P10493 1-1245, looked up)
chain: MLDASGCSWAMWTWALLQLLLLVGPGGCLNRQELFPFGPGQGDLELEAGDDVVSPSLELIGELSFYDRTDITSVYVTTNGIIAMSEPPATEYHPGTFPPSFGSVAPFLADLDTTDGLGNVYYREDLSPFIIQMAAEYVQRGFPEVSFQPTSVVVVTWESVAPYGGPSSSPAEEGKRNTFQAVLASSNSSSYAIFLYPEDGLQFFTTFSKKDESQVPAVVGFSKGLVGFLWKSNGAYNIFANDRESIENLAKSSNAGHQGVWVFEIGSPATAKGVVSADVNLDLDDDGADYEDEDYDLVTSHLGLEDVATPSPSHSPRRGYPDPHNVPRILSPGYEATERPRGVPTERTRSFQLPAERFPQHHPQVIDVDEVEETGVVFSYNTGSQQTCANNRHQCSVHAECRDYATGFCCRCVANYTGNGRQCVAEGSPQRVNGKVKGRIFVGSSQVPVVFENTDLHSYVVMNHGRSYTAISTIPETVGYSLLPLAPIGGIIGWMFAVEQDGFKNGFSITGGEFTRQAEVTFLGHPGKLVLKQQFSGIDEHGHLTISTELEGRVPQIPYGASVHIEPYTELYHYSSSVITSSSTREYTVMEPDQDGAAPSHTHIYQWRQTITFQECAHDDARPALPSTQQLSVDSVFVLYNKEERILRYALSNSIGPVRDGSPDALQNPCYIGTHGCDSNAACRPGPGTQFTCECSIGFRGDGQTCYDIDECSEQPSRCGNHAVCNNLPGTFRCECVEGYHFSDRGTCVAAEDQRPINYCETGLHNCDIPQRAQCIYMGGSSYTCSCLPGFSGDGRACRDVDECQHSRCHPDAFCYNTPGSFTCQCKPGYQGDGFRCMPGEVSKTRCQLEREHILGAAGGADAQRPTLQGMFVPQCDEYGHYVPTQCHHSTGYCWCVDRDGRELEGSRTPPGMRPPCLSTVAPPIHQGPVVPTAVIPLPPGTHLLFAQTGKIERLPLERNTMKKTEAKAFLHIPAKVIIGLAFDCVDKVVYWTDISEPSIGRASLHGGEPTTIIRQDLGSPEGIALDHLGRTIFWTDSQLDRIEVAKMDGTQRRVLFDTGLVNPRGIVTDPVRGNLYWTDWNRDNPKIETSHMDGTNRRILAQDNLGLPNGLTFDAFSSQLCWVDAGTHRAECLNPAQPGRRKVLEGLQYPFAVTSYGKNLYYTDWKTNSVIAMDLAISKEMDTFHPHKQTRLYGITIALSQCPQGHNYCSVNNGGCTHLCLPTPGSRTCRCPDNTLGVDCIERK
modifications: full-length
B6: Q00623 (protein, UniProt Q00623 1-264, looked up)
chain: MKAVVLAVALVFLTGSQAWHVWQQDEPQSQWDKVKDFANVYVDAVKDSGRDYVSQFESSSLGQQLNLNLLENWDTLGSTVSQLQERLGPLTRDFWDNLEKETDWVRQEMNKDLEEVKQKVQPYLDEFQKKWKEDVELYRQKVAPLGAELQESARQKLQELQGRLSPVAEEFRDRMRTHVDSLRTQLAPHSEQMRESLAQRLAELKSNPTLNEYHTRAKTHLKTLGEKARPALEDLRHSLMPMLETLKTQVQSVIDKASETLTAQ
modifications: full-length
B7: Q8C196 (protein, UniProt Q8C196 1-1500, looked up)
chain: MTRILTACKVVKTLKSGFGFANVTTKRQWDFSRPGIRLLSVKAKTAHIVLEDGTKMKGYSFGHPSSVAGEVVFNTGLGGYPEALTDPAYKGQILTMANPIIGNGGAPDTTARDELGLNKYMESDGIKVAGLLVLNYSNDYNHWLATKSLGQWLQEEKVPAIYGVDTRMLTKIIRDKGTMLGKIEFEGQSVDFVDPNKQNLIAEVSTKDVKVFGKGNPTKVVAVDCGIKNNVIRLLVKRGAEVHLVPWNHDFTQMEYDGLLIAGGPGNPALAQPLIQNVKKILESDRKEPLFGISTGNIITGLAAGAKSYKMSMANRGQNQPVLNITNRQAFITAQNHGYALDNTLPAGWKPLFVNVNDQTNEGIMHESKPFFAVQFHPEVSPGPTDTEYLFDSFFSLIKKGKGTTITSVLPKPALVASRVEVSKVLILGSGGLSIGQAGEFDYSGSQAVKAMKEENVKTVLMNPNIASVQTNEVGLKQADAVYFLPITPQFVTEVIKAERPDGLILGMGGQTALNCGVELFKRGVLKEYGVKVLGTSVESIMATEDRQLFSDKLNEINEKIAPSFAVESMEDALKAADTIGYPVMIRSAYALGGLGSGICPNKETLIDLGTKAFAMTNQILVERSVTGWKEIEYEVVRDADDNCVTVCNMENVDAMGVHTGDSVVVAPAQTLSNAEFQMLRRTSVNVVRHLGIVGECNIQFALHPTSMEYCIIEVNARLSRSSALASKATGYPLAFIAAKIALGIPLPEIKNVVSGKTSACFEPSLDYMVTKIPRWDLDRFHGTSSRIGSSMKSVGEVMAIGRTFEESFQKALRMCHPSVDGFTPRLPMNKEWPANLDLKKELSEPSSTRIYAIAKALENNMSLDEIVRLTSIDKWFLYKMRDILNMDKTLKGLNSDSVTEETLRKAKEIGFSDKQISKCLGLTEAQTRELRLKKNIHPWVKQIDTLAAEYPSVTNYLYVTYNGQEHDIKFDEHGIMVLGCGPYHIGSSVEFDWCAVSSIRTLRQLGKKTVVVNCNPETVSTDFDECDKLYFEELSLERILDIYHQEACNGCIISVGGQIPNNLAVPLYKNGVKIMGTSPLQIDRAEDRSIFSAVLDELKVAQAPWKAVNTLNEALEFANSVGYPCLLRPSYVLSGSAMNVVFSEDEMKRFLEEATRVSQEHPVVLTKFVEGAREVEMDAVGKEGRVISHAISEHVEDAGVHSGDATLMLPTQTISQGAIEKVKDATRKIAKAFAISGPFNVQFLVKGNDVLVIECNLRASRSFPFVSKTLGVDFIDVATKVMIGESIDEKRLPTLEQPIIPSDYVAIKAPMFSWPRLRDADPILRCEMASTGEVACFGEGIHTAFLKAMLSTGFKIPQKGILIGIQQSFRPRFLGVAEQLHNEGFKLFATEATSDWLNANNVPATPVAWPSQEGQNPSLSSIRKLIRDGSIDLVINLPNNNTKFVHDNYVIRRTAVDSGIALLTNFQVTKLFAEAVQKSRTVDSKSLFHYRQYSAGKAA
modifications: full-length

In one series the test system is CA19-9 modified proteins. In words: CA19-9 IP/MS (iTRAQ) of organoid conditioned media after Dox treatment. Details: species or system mouse. As to conditions: CA19-9 IP/MS relative abundance; A217 (genetic negative) organoid conditioned media, 0H (before treatment), IP with NS19-9; reference channel = 1.
Consider B1, for which the “17 0H NS19” value is 1.

Turning to B2, the “17 0H NS19” value was 1.

B3: the “17 0H NS19” value was 1.

Turning to B4, the “17 0H NS19” value was 1.

As for B5, the “17 0H NS19” value is recorded as 1.

B6: the “17 0H NS19” value came to 1.

B7: the “17 0H NS19” value amounted to 1.

The same series, now with this note: CA19-9 IP/MS relative abundance; A217 (genetic negative) organoid conditioned media, after 8 hours, IP with 5B1.
With B1, the “17 8H 5B1” value is 2.747.

In the case of B2, the “17 8H 5B1” value is reported as 3.794.

As for B3, the “17 8H 5B1” value is reported as 3.461.

Consider B4, for which the “17 8H 5B1” value worked out at 2.089.

Consider B5, for which the “17 8H 5B1” value is listed as 2.984.

In the case of B6, the “17 8H 5B1” value is recorded as 11.86.

B7: the “17 8H 5B1” value is recorded as 3.227.

The same series, now with this note: CA19-9 IP/MS relative abundance; A217 (genetic negative) organoid conditioned media, after 8 hours, IP with NS19-9.
B1: the “17 8H NS19” value is 0.714.

With B2, the “17 8H NS19” value came out at 0.617.

For B3, the “17 8H NS19” value came out at 0.798.

Turning to B4, the “17 8H NS19” value stood at 0.704.

On to B5, for which the “17 8H NS19” value was found to be 0.472.

For the molecule B6, the “17 8H NS19” value worked out at 0.86.

For the molecule B7, the “17 8H NS19” value amounted to 0.633.

The series is the same for the next values; noted with them: CA19-9 IP/MS relative abundance; A220 (C;R^LSL;F) organoid conditioned media, 0H (before treatment), IP with 5B1.
Consider B1, for which the “20 0H 5B1” value stood at 2.313.

On to B2, for which the “20 0H 5B1” value amounted to 3.294.

Regarding B3, the “20 0H 5B1” value amounted to 2.25.

As for B4, the “20 0H 5B1” value is reported as 1.829.

For B5, the “20 0H 5B1” value is reported as 2.449.

Regarding B6, the “20 0H 5B1” value was found to be 8.414.

On to B7, for which the “20 0H 5B1” value stood at 2.679.
